Test results published in patent publication US5023322A, “Analogs of growth hormone releasing factor (GRF) and a method for the preparation thereof” (MTA Kutatas-es Szervezetelemzo Intezete, priority 1988, dated 1991).
At least one peptide structure holds a part that was inferred or is arguable (an end, a ring closure or a residue). Non-standard residues stand in square brackets, D forms with d. Residues, ends and D or L forms follow the SMILES beside them. Nle = CCCC[C@H](N)C(=O)O; GABA = NCCCC(=O)O

Tests used:
[1] = tested on: growth hormone release; test: plasma GH level in anaesthetized rats after intravenous administration; assay type: in vivo, Wistar Amsterdam rats; conditions: i.v.
Protocol: (§1) The biological effects of the compounds according to the invention were tested under in vitro and in vivo conditions. In both instances the growth hormone release was measured as a function of the concentration of the compound administered. The amount of growth hormone released was detected by radioimmune assay with a reliability limit of 95%. The results obtained were compared to those obtained when administering native hpGRF or hGRF(1-29)--NH2, respectively.
(§2) Mature male Wistar Amsterdam rats, weighing 250-300 g, were anaesthetized intraperitoneally with 60 mg/kg of pentobarbital. The peptides to be tested were dissolved in 0.9% by weight aqueous saline solution, and were administered to the animals 20 minutes after anaesthesy as an intravenous (i.v.), intramuscular (i.m.) or subcutaneous (s.c.) injection. Blood samples were taken from the jugular vein of the animals prior to the administration of the active agent (-1 minute) and 5, 15 and 30 minutes after challenge. The amount of growth hormone released was measured by radioimmune assay.
Therefore, when the compounds were administered intravenously, the percentage increase in activity was calculated by relating the amount of growth hormone released upon administering a compound of the invention to the amount of growth hormone released upon administering hGRF(1-29)--NH2.

[2] = tested on: growth hormone release; test: plasma GH level in anaesthetized rats after intramuscular administration; assay type: in vivo, Wistar Amsterdam rats; conditions: i.m.
Protocol: as §1, §2
(§3) Therefore, in these tests the activity of the compounds according to the invention was characterized by the percentage increase in the plasma growth hormone level related to that originally present in the plasma (basal value).

[3] = tested on: growth hormone release; test: plasma GH level in anaesthetized rats after subcutaneous administration; assay type: in vivo, Wistar Amsterdam rats; conditions: s.c.
Protocol: as §1, §2, §3

[4] = tested on: rat hypophysis monolayer cell culture; test: growth hormone (STH) release in rat hypophysis monolayer cell culture, radioimmune assay; assay type: cell-based; conditions: 18 parallel tests, FIG. 1

With CCCC[C@H](NC(=O)[C@@H](NC(=O)[C@H](CC(=O)O)NC(=O)[C@H](CCC(N)=O)NC(=O)[C@H](CC(C)C)NC(=O)[C@H](CC(C)C)NC(=O)[C@H](CCCCN)NC(=O)[C@H](CCCNC(=N)N)NC(=O)[C@H](C)NC(=O)[C@H](CO)NC(=O)[C@H](CC(C)C)NC(=O)[C@H](CCC(N)=O)NC(=O)[C@H](CC(C)C)NC(=O)[C@H](CC(C)C)NC(=O)[C@@H](NC(=O)[C@H](CCCCN)NC(=O)[C@H](CCCNC(=N)N)NC(=O)[C@H](Cc1ccc(O)cc1)NC(=O)[C@H](CO)NC(=O)[C@H](CC(N)=O)NC(=O)[C@@H](NC(=O)[C@H](Cc1ccccc1)NC(=O)[C@@H](NC(=O)[C@H](C)NC(=O)[C@H](CC(=O)O)NC(=O)[C@@H](C)NC(=O)[C@@H](N)Cc1ccc(O)cc1)[C@@H](C)CC)[C@@H](C)O)C(C)C)[C@@H](C)CC)C(=O)N[C@@H](CO)C(=O)N[C@@H](CCCNC(=N)N)C(=O)NCCCC(N)=O [Compound 2, D-Ala^2,Leu^15,Nle^27,Gaba^30 --hGRF(1-30)--NH2] (H-Y[dA]DAIFTNSYRKVLLQLSARKLLQDI[Nle]SR[GABA]-NH2) the “Increase % (GH released related to that with hGRF(1-29)--NH2)” value (shortened to “Increase %”) ([1]; 0.8 μg/kg, +5 min) was 151%, the “Plasma GH level” value ([1]; 0.8 μg/kg, +5 min) was 468.92 ng/mL and the “Increase %” value ([1]; 0.8 μg/kg, +15 min) was 217%. The “Plasma GH level” value ([1]; 0.8 μg/kg, +15 min) was 203.51 ng/mL, the “Increase %” value ([1]; 0.8 μg/kg, +30 min) was 140% and the “Plasma GH level” value ([1]; 0.8 μg/kg, +30 min) was 71.49 ng/mL. The “Plasma GH level” value ([1]; 0.8 μg/kg, -1 min (before administration)) was 96.90 ng/mL, the “Increase %” value ([1]; 2 μg/kg, +5 min) was 135% and the “Plasma GH level” value ([1]; 2 μg/kg, +5 min) was 1427.90 ng/mL. The “Increase %” value ([1]; 2 μg/kg, +15 min) was 156%, the “Plasma GH level” value ([1]; 2 μg/kg, +15 min) was 614.38 ng/mL and the “Increase %” value ([1]; 2 μg/kg, +30 min) was 120%. The “Plasma GH level” value ([1]; 2 μg/kg, +30 min) was 133.20 ng/mL, the “Plasma GH level” value ([1]; 2 μg/kg, -1 min (before administration)) was 100.12 ng/mL and the “Plasma GH level” value ([2]; "A" 2 μg/kg, +5 min) was 122.09 ng/mL. The “percentage increase related to the basal value (GH level measured in the -1 minute)” value (from here on “percentage increase related”) ([2]; "A" 2 μg/kg, +5 min) was 193%, the “Plasma GH level” value ([2]; "A" 2 μg/kg, +15 min) was 138.04 ng/mL and the “percentage increase related” value ([2]; "A" 2 μg/kg, +15 min) was 219%. For the same compound, the “Plasma GH level” value ([2]; "A" 2 μg/kg, +30 min) was 70.19 ng/mL, the “percentage increase related” value ([2]; "A" 2 μg/kg, +30 min) was 110% and the “Plasma GH level” value ([2]; "A" 2 μg/kg, -1 min (basal value)) was 62.85 ng/mL. The “Plasma GH level” value ([2]; "B" 5 μg/kg, +5 min) was 658.86 ng/mL, the “percentage increase related” value ([2]; "B" 5 μg/kg, +5 min) was 1290% and the “Plasma GH level” value ([2]; "B" 5 μg/kg, +15 min) was 409.17 ng/mL. For the same compound, the “percentage increase related” value ([2]; "B" 5 μg/kg, +15 min) was 786%, the “Plasma GH level” value ([2]; "B" 5 μg/kg, +30 min) was 184.02 ng/mL and the “percentage increase related” value ([2]; "B" 5 μg/kg, +30 min) was 353%. The “Plasma GH level” value ([2]; "B" 5 μg/kg, -1 min (basal value)) was 51.73 ng/mL, the “Plasma GH level” value ([3]; "A" 5 μg/kg, +5 min) was 304.00 ng/mL and the “percentage increase related” value ([3]; "A" 5 μg/kg, +5 min) was 443%. For the same compound, the “Plasma GH level” value ([3]; "A" 5 μg/kg, +15 min) was 203.29 ng/mL, the “percentage increase related” value ([3]; "A" 5 μg/kg, +15 min) was 294% and the “Plasma GH level” value ([3]; "A" 5 μg/kg, +30 min) was 69.14 ng/mL. For the same compound, the “percentage increase related” value ([3]; "A" 5 μg/kg, +30 min) was 100%, the “Plasma GH level” value ([3]; "A" 5 μg/kg, -1 min (basal value)) was 68.57 ng/mL and the “Plasma GH level” value ([3]; "B" 12.5 μg/kg, +5 min) was 555.85 ng/mL. The “percentage increase related” value ([3]; "B" 12.5 μg/kg, +5 min) was 880%, the “Plasma GH level” value ([3]; "B" 12.5 μg/kg, +15 min) was 438.92 ng/mL and the “percentage increase related” value ([3]; "B" 12.5 μg/kg, +15 min) was 695%. For the same compound, the “Plasma GH level” value ([3]; "B" 12.5 μg/kg, +30 min) was 140.38 ng/mL, the “percentage increase related” value ([3]; "B" 12.5 μg/kg, +30 min) was 222% and the “Plasma GH level” value ([3]; "B" 12.5 μg/kg, -1 min (basal value)) was 63.30 ng/mL.
With CCCC[C@H](NC(=O)[C@@H](NC(=O)[C@H](CC(=O)O)NC(=O)[C@H](CCC(N)=O)NC(=O)[C@H](CC(C)C)NC(=O)[C@H](CC(C)C)NC(=O)[C@H](CCCCN)NC(=O)[C@H](CCCNC(=N)N)NC(=O)[C@H](C)NC(=O)[C@H](CO)NC(=O)[C@H](CC(C)C)NC(=O)[C@H](CCC(N)=O)NC(=O)CNC(=O)[C@H](CC(C)C)NC(=O)[C@@H](NC(=O)[C@H](CCCCN)NC(=O)[C@H](CCCNC(=N)N)NC(=O)[C@H](Cc1ccc(O)cc1)NC(=O)[C@H](CO)NC(=O)[C@H](CC(N)=O)NC(=O)[C@@H](NC(=O)[C@H](Cc1ccccc1)NC(=O)[C@@H](NC(=O)[C@H](C)NC(=O)[C@H](CC(=O)O)NC(=O)[C@H](C)NC(=O)[C@@H](N)Cc1ccc(O)cc1)[C@@H](C)CC)[C@@H](C)O)C(C)C)[C@@H](C)CC)C(=O)N[C@@H](CO)C(=O)N[C@@H](CCCNC(=N)N)C(=O)NCCCC(N)=O [Compound 4, Nle^27,Gaba^30 --hGRF(1-30)--NH2] (H-YADAIFTNSYRKVLGQLSARKLLQDI[Nle]SR[GABA]-NH2) the “activity relative to hpGRF-44 (concentration needed for same STH release ng/culture)” value [4] was “about fifty”, the “Increase %” value ([1]; 2 μg/kg, +5 min) was 164% and the “Increase %” value ([1]; 2 μg/kg, +30 min) was 204%. The “Increase %” value ([1]; 2 μg/kg, after 10 minute) was 155%.
